Measurements published in patent US20040073001A1.
No constants are given. Whether binding was seen depends on the method and setting. For some assays here: Binding seen in cells or lysates may run through a third protein. Some entries that bind do so weakly or less than the wild type. For some assays here: Tags and fused reporters may be left off the sequences shown.

Sequences of proteins named here, by UniProt entry; tags and fusion partners are left off.
UniProt Q02248: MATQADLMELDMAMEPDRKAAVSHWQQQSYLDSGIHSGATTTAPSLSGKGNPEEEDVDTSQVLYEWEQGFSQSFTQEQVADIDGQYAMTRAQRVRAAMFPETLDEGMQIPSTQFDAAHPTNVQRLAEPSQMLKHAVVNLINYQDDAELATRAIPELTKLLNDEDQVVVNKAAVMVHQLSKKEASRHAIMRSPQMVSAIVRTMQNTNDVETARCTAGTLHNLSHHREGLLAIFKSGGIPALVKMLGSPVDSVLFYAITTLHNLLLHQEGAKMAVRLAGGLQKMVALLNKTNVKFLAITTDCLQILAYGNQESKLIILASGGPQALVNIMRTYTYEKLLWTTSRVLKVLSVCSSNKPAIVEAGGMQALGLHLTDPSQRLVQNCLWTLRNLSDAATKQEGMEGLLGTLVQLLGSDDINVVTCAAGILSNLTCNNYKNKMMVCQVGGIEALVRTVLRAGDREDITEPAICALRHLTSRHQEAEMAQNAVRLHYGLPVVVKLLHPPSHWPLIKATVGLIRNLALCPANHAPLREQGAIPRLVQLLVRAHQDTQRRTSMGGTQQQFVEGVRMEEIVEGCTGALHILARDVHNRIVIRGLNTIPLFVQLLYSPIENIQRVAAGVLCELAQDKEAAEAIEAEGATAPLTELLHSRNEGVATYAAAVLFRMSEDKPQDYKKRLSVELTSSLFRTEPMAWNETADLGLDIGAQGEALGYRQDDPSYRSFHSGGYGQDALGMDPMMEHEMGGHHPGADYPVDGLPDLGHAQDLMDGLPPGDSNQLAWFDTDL

Tests used:
[1] = target: GAL4-β-catenin fusion protein (GAL4 BD fused with mouse β-catenin armadillo domain, residues 128 to 683) (yeast; mouse) (UniProt P04386+Q02248); assay: yeast two-hybrid, β-galactosidase activity
[2] = target: GST-β-catenin fusion protein (mouse) (UniProt Q02248); assay: GST pull-down on glutathione-Sepharose 4B, SDS-PAGE and autoradiography

B1: GAL4 AD fusion of the partial fragment (244-410) of human bc19 protein (protein, UniProt O00512 244-410, looked up, not shown: large carriers)
chain: QDQNSSQNTRLQPTPPIPAPAPKPAAPPRPLDRESPGVENKLIPSVGSPASSTPLPPDGTGPNSTPNNRAVTPVSQGSNSSSADPKAPPPPPVSSGEPPTLGENPDGLSQEQLEHRERSLQTLRDIQRMLFPDEKEFTGAQSGGPQQNPGVLDGPQKKPEGPIQAMM
B1 was tested, and the binding [1] was “binds”.

B2: 35S-labeled B9L protein (SEQ ID NO: 4), made by in vitro transcription and translation (protein)
chain: LANTAAEAVLQGRAESILAYHQQNVPRAKLDQAPKVPPTPEPLPLNTPSAGTPQSQPPPLPPPPPAPGSAPPALPPEGPPEDTSQDLAPNSVGAASTGGGTGGTHPNTPTAATANNPLPPGGDPGSAPGSALLGEATPTGNGQRNLVGSEGLSKEQLEHRERSLQTLRDIERLLLRSGETEPFLKGPPGGAGEGGPPAQAPSAAQPPPSAPPGGLKKYEEPLQSMISQTQSLGGPPLEHEVPGHPQGGDMGQQMNMMMQRLGQDSLTPEQVAWRKLQEEYYEEKRRKEEQIGLHGGRPLQDMVGMGGMMGRGPPPPYHSK
modifications: 35S-labeled methionine
In the case of B2, the binding [2] is reported as “binds”.
